These are yes or no findings as the source states them, for the method shown. Some results given as binding are weak or reduced against the parent protein; the word gives no strength.
Assays:
KaiC (S. elongatus) [1] = molecular target: T1, KaiC (S. elongatus) (UniProt Q79PF4); test: negative-stain electron microscopy with image classification; defined samples for comparison: KaiC alone, KaiA mixed with KaiC, KaiB mixed with KaiC (30 °C, examined at various times; 6 h for KaiB•KaiC; reconstruction at about 20 Å); both purified
T1 sequence: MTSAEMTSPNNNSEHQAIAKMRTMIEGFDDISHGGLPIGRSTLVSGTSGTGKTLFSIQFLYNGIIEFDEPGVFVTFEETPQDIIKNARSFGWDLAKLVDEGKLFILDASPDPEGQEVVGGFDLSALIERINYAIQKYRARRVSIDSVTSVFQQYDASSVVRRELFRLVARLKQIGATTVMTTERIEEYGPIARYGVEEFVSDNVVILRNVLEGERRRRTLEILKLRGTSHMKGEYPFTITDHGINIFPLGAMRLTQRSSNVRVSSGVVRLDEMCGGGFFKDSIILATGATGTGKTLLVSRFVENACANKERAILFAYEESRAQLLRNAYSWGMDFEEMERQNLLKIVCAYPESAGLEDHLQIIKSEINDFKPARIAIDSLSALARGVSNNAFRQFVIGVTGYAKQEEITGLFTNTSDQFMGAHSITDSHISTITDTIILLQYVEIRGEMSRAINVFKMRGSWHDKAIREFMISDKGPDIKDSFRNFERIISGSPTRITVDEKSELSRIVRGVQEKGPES

KaiC (S. elongatus) [2] = molecular target: T1, KaiC (S. elongatus); test: native gel or EMSA; 2-D blue-native/SDS-PAGE of aliquots of the KaiABC cycling reaction at 18, 24, 33 and 39 h; BN-PAGE on 4%-20% Bis-Tris gel at 4-6 °C for 10 h with 1 mM ATP and 5 mM MgCl2 in the cathode buffer; Coomassie stain, densitometry; both purified
KaiC (S. elongatus) [3] = molecular target: T1, KaiC (S. elongatus); test: negative-stain electron microscopy with image classification; aliquots every 3 h from the oscillating KaiA/KaiB/KaiC mixture (50 ng/ul KaiA, 50 ng/ul KaiB, 200 ng/ul KaiC, 1 mM ATP, 30 °C); 0.75% uranyl formate; particles sorted into four meta classes at seven phases; both purified

Measured: binding

B1: KaiA (protein, UniProt Q79PF6 1-284)
chain: MLSQIAICIWVESTAILQDCQRALSADRYQLQVCESGEMLLEYAQTHRDQIDCLILVAANPSFRAVVQQLCFEGVVVPAIVVGDRDSEDPDEPAKEQLYHSAELHLGIHQLEQLPYQVDAALAEFLRLAPVETMADHIMLMGANHDPELSSQQRDLAQRLQERLGYLGVYYKRDPDRFLRNLPAYESQKLHQAMQTSYREIVLSYFSPNSNLNQSIDNFVNMAFFADVPVTKVVEIHMELMDEFAKKLRVEGRSEDILLDYRLTLIDVIAHLCEMYRRSIPRET
binds: all assays above

Reference: paper PMC1831719, “Elucidating the Ticking of an In Vitro Circadian Clockwork” (PLoS Biology, 2007)
